According to patent publication US20100105707A1, “METHOD OF TREATING OR PREVENTING OXIDATIVE STRESS-RELATED DISEASE” (The United States of America, priority 2006, published 2010):
Some of these results come from one statement about several compounds together. Some compounds share one range, which may span the group rather than tell each member.

Experiment: Pharmacokinetics: plasma and brain levels after intravenous administration
Format: in vivo, C57BL/6 mice
Details: mice, equimolar to 10 mg/kg uric acid, early time points (15-30 min)
Protocol: Mice are administered intravenously 10 mg/kg ([…]) of uric acid as a reference compound and equimolar doses of its analogs (sUA4-2,6,8 trithio uric acid, 12.9 mg/kg; mUA2-1,7 dimethyl uric acid, 11.7 mg/kg; sUA2-6,8 dithio uric acid, 11.9 mg/kg). Three month-old male C57BL/6 mice are injected with a compound and are euthanized 15, 30, 60 or 120 min later (1 mouse/time point/compound). Blood and brain tissues are rapidly removed, frozen on dry ice and kept at −80° C. before quantification of uric acid analogs. Plasma and cerebral cortical tissues are extracted in 10 volumes of 0.5 M perchloric acid and 1 mM ethylenediamine tetraacetic acid (EDTA). Levels of uric acid analogs in the extracts are quantified by HPLC methods employing a 25 cm RP C18 column, 25 mM KH2PO4 buffer (pH=4.6) with 1 ml/min flow rate and UV diode array detection.
Mice that are administered mUA2, sUA2 or sUA4 intravenously are euthanized at increasing time points (15, 30, 60 and 120 min) and levels of the compounds in plasma and brain tissue are measured.

## O=c1[nH]c(=S)c2[nH]c(=S)[nH]c2[nH]1 [sUA2, 6,8 dithio uric acid]
  concentration in brain tissue: 500 to 1000 nM

## S=c1[nH]c(=S)c2[nH]c(=S)[nH]c2[nH]1 [sUA4, 2,6,8 trithio uric acid]
  concentration in brain tissue: 500 to 1000 nM

## Cn1c(=O)[nH]c2[nH]c(=O)n(C)c2c1=O [mUA2, 1,7 dimethyl uric acid]
  concentration in brain tissue: 500 to 1000 nM
